The values below come from PubChem BioAssay AID1508600 (Functional Genomics Laboratory (NCATS/FGL), 2020).

About 3,700 (7%) of roughly 53,000 sequences were called active.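 Rule for the calls: active = gene knockdowns whose robust z-score for IL-1 alpha signal is at least 2 or at most -2, so actives lie on both sides; inactive = the rest.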 This is one part of the list.

This assay is described as follows: Components of the Cytosolic LPS Sensing Pathway: Gene Identification via Genome-wide siRNA Screen.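 Note: robust z of the log signal after scaling to non-targeting control siRNA wells of the plate.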 Conditions: RAW264.7 macrophages, IL-1a HTRF, actives lie on both sides, screened at 100 nM (by protocol), cells primed 5 h with Pam3CSK4 first. Summed up: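 Using IL-1a HTRF as read-out, the screen measured release from RAW264.7 cells after 48h siRNA knockdown (100 nM), 5 h Pam3CSK4 priming and 24 h cytosolic LipidA. Values were expressed relative to negative-control wells as robust z-scores.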
For GCUGUCCAAGUACGAGACATT against Atoh7, the z-score was inactive: 0.0721.

As for GCAAGUAAGCCUAAGGAAATT against Pcnp, the z-score was inactive: 0.913.

For GCAUUAAUGUGACAGCUACTT against Dhrs4, the z-score was inactive: 0.455.

Regarding GGCAACUGUGUUCUCACGATT against Ddx58, the z-score is inactive: -1.22.

In the case of GCAAUUAUCGUGGUAUCCUTT against Dgat1, the z-score was inactive: 0.49.

Take UGCUGUGCAGAAAGACUAGTT against Nkx2-6: the z-score was inactive: -1.95.

As to GCUUGAUAGGGAACUUAAUTT against Olfr805, the z-score is inactive: -1.57.

Take CGGGUUUAGGAGCAACCUUTT against Zdhhc4: the z-score was active: -3.02.

GACUUCAAACAAAUGGUGCTT against Lce1h: the z-score was inactive: -0.454.

On to GCGAGUGAUUGAGGAUCCCTT against Trmt5, for which the z-score was inactive: 1.01.

On to “GCUGAAGAGGCGCAUACAUTT against 2610318N02Rik”, for which the z-score is active: 3.07.

In the case of GGAUCAAUGUGUUCUCAUCTT against Cxcl5, the z-score is inactive: -0.0105.

As for GCUUGCUCUCAUCGGAGAUTT against Bak1, the z-score is inactive: 0.0521.

Regarding GGGAGAAACGCAUCUUAUCTT against Ngly1, the z-score is active: 2.38.

As for GGUGAAAUUCUGAAUGAAATT against Gatb, the z-score is inactive: -0.0515.

On to GGAGAUGUUCCACAAGAAGTT against Cacna2d3, for which the z-score was inactive: 0.062.

In the case of GGAUAAAGUACUCCAUUAATT against Prr11, the z-score was inactive: -1.95.

As for GGUGAUGUGGAAAAAUGCATT against Sult1e1, the z-score is inactive: -0.483.

Take GCCAGUUAGAUGAAUUUCATT against Cop1: the z-score was inactive: -0.764.

With GCAUGAAAAGGUAUUACUCTT against Exoc6, the z-score is inactive: 0.734.

As for CCGAUGGGAAAAUCCAGUUTT against B4galnt3, the z-score was inactive: -0.451.

For the sequence GGUCGAAGUGAAACCAGUCTT against Pik3r2, the z-score is inactive: 0.731.

Turning to CGCAAUGUAUGAUUCAAUGTT against Mogat1, the z-score is inactive: 1.76.

On to GGACAUUCAUUCACCUUAUTT against Lipt2, for which the z-score was inactive: 0.154.

For the sequence GCUCCUAAUGGAAAGAACGTT against Pla2g4d, the z-score was inactive: 0.0914.

As for GGAUUUGAGUACAAGAAACTT against Tada2a, the z-score was inactive: -0.523.

With GGAAAAGGAAAUAAAAGAGTT against Hemgn, the z-score was inactive: -1.15.

As to GCUGAAACCUCAUGAGGAGTT against Ptpn9, the z-score is inactive: 0.806.

Turning to GGAUACAAAUCAGGUUCUCTT against Kansl2, the z-score is inactive: 0.0399.

Regarding CCCGGUCUACAGUUAUUCGTT against Mnx1, the z-score is inactive: 1.95.

With GGGAUGUCUUCCUAUACAGTT against Cope, the z-score is active: -2.78.

As to CGUGGAGAGAUCAAUCCCGTT against Adad1, the z-score was active: -2.01.

On to GGAGUCAGUGACAAGGCUCTT against Olfr54, for which the z-score is inactive: 0.835.

On to GCGAGGGAUAGAAGUCGUGTT against Itpk1, for which the z-score is inactive: -0.732.

On to GGAAUUUAAGGUGUUCACATT against Lcn3, for which the z-score was inactive: -0.197.

As to GCACUGGAAUGUCAUCUCGTT against Casp3, the z-score is active: 2.9.

For the sequence GGUAUUCCUUGCCAUUCGGTT against Stc1, the z-score is inactive: 1.8.

Regarding GGUCUUCAGUCCUGUACCATT against AY358078, the z-score was inactive: -0.0581.

Consider GGACUUUGUGGAGAAUGUCTT against Cyp1a2, for which the z-score is inactive: -0.876.

As to GGCAGAACUUGCCGAGUAGTT against Tmem68, the z-score is inactive: -0.664.

With GCUUCCUACAAUUAAUUCATT against Thap12, the z-score is inactive: 0.614.

Turning to GCACUUUGGGUUUAAGUACTT against Ndrg4, the z-score is active: 3.7.

Regarding GGUGCUUGAGAGACUGAUATT against Nes, the z-score is inactive: 1.62.

Consider GCCACUAUUGAAGCUUGCCTT against Olfr1209, for which the z-score is inactive: 1.32.

Turning to GGUUCGGCUCAUCUACCAATT against Tmub1, the z-score is inactive: 0.557.

Take GGCUGUAGUGAAGGUGUACTT against Parp3: the z-score was inactive: -0.414.

Regarding GCUCAAAGCAUUAACUUGUTT against Pbk, the z-score is inactive: -0.0955.

In the case of GGAAGAAUACAAGUCUAGUTT against Pclo, the z-score is inactive: 1.09.

As for “GGUUAACAAAGGAAUAGCATT against B230354K17Rik”, the z-score is inactive: -1.23.

Turning to GGAAAGCUUGGACAUUAAGTT against Rps6kc1, the z-score is inactive: -0.0887.

On to CCUGAAGACACCAAGUUCATT against Pcp4, for which the z-score is inactive: -0.938.

Take GGUGAUGCUCGAAUUGGGUTT against Drg1: the z-score is inactive: -0.253.

Turning to CGGUCUGAUGGAGUGCUAUTT against Plekhm1, the z-score was inactive: 0.508.

For GGUUAUCGUGCGCAUCCGATT against Pcdh8, the z-score is inactive: -0.744.

In the case of GGACCGUUUCAUUUCAGGGTT against Phf1, the z-score was inactive: -1.62.

On to CCAUUCCAUGUCGAUGUCUTT against Prm2, for which the z-score is active: -2.08.

Consider CGAGUGAGCAUCACUUUUATT against Mal, for which the z-score is inactive: -1.25.

GGCCUGUCGAAUGAAAGUGTT against Eif2ak4: the z-score was inactive: -0.965.

Regarding CGAGUGGCUGAAACUUCCGTT against Pik3c3, the z-score is inactive: -1.27.

With GGAUUUGAACAUAAGUGACTT against Arhgap44, the z-score is inactive: -0.0615.

CCUGUUAGGAAAGAAUCUUTT against Zc3h13: the z-score was inactive: -0.478.

Consider CGAAGAGGAUAGGCUACGCTT against Grk3, for which the z-score was inactive: -0.699.

With CCCUAGACUAAAAAGUAAATT against Paqr5, the z-score was inactive: 0.327.

GGUCCUUCAACGGAAGGGATT against Tagap: the z-score is inactive: 0.196.

“GGUCCAAAGCAAUUCCAGCTT against E330013P04Rik”: the z-score was inactive: 0.875.

For the sequence GGACUCACCUCAGGAACAGTT against Cd33, the z-score is inactive: -0.53.

In the case of CCUAGCACUGUUAUAAACATT against Oog1, the z-score is inactive: 1.24.

Take GGACUCUUCAGCUUCCAGUTT against Uts2: the z-score was inactive: -0.0543.
